Cleaved PARP after 72 h of treatment

Source: doi:10.1371/journal.pone.0140310, primary screening data, rounded.

Every entry is a combination with nilotinib at 1 µM: Cc1cn(-c2cc(NC(=O)c3ccc(C)c(Nc4nccc(-c5cccnc5)n4)c3)cc(C(F)(F)F)c2)cn1

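Human melanoma cell lines in 1,536-well plates were treated with two drugs together for 72 h, then fixed, stained and imaged. Values are the share of nuclei positive for cleaved PARP as a percentage of the same share in the DMSO control: 100 is the control level, higher means more apoptosis. Every drug was used at one fixed concentration, the higher of two screened. No replicate spread is given; individual values may be noisy. The marker varies much from line to line, for technical or biological reasons.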
An unselected part of the screen is shown.
A dash means that no value is listed here.

| Second drug | IPC-298 | MZ2-MEL | G-361 | WM451Lu | 501mel | A101D | UACC-62 | A375 | SK-MEL-30 | RVH-421 |
|---|---|---|---|---|---|---|---|---|---|---|
| COc1cc2ncnc(Nc3ccc(Oc4ccccc4)cc3)c2cc1OC at 10 µM | 51.4 | 159 | 169 | 269 | 154 | 54.6 | 265 | 32.6 | 132 | 47.4 |
| Nc1ccn([C@@H]2O[C@H](CO)[C@@H](O)C2(F)F)c(=O)n1 at 0.002 µM | 135 | 114 | 86.2 | 89.0 | - | 206 | 218 | 65.2 | 154 | 136 |
| CCN(CC)CCNC(=O)c1c(C)[nH]c(/C=C2\C(=O)Nc3ccc(F)cc32)c1C at 2 µM | 45.8 | 52.2 | 105 | 253 | - | 104 | 121 | 127 | 81.2 | 43.8 |
| C[As](C)SC[C@H](NC(=O)CC[C@H](N)C(=O)O)C(=O)NCC(=O)O at 2 µM | 50.5 | 83.4 | 72.2 | 43.4 | - | 42.6 | 168 | 118 | 50.3 | 291 |
| c1cc(-c2cnn3cc(-c4ccc(OCCN5CCCCC5)cc4)cnc23)ccn1 at 2 µM | 97.5 | 172 | 565 | 515 | 239 | 43.8 | 200 | 95.0 | 145 | 167 |
| O=C(/C=C/c1cccnc1)NCCCCC1CCN(C(=O)c2ccccc2)CC1 at 0.05 µM | 653 | 913 | 9800 | 155 | - | 79.2 | 257 | 130 | 141 | 201 |
| C[C@@H](N)c1ccc(C(=O)Nc2ccnc3[nH]ccc23)cc1 at 2 µM | 49.7 | 428 | 135 | 225 | - | 96.6 | 315 | 82.5 | 207 | 309 |
| NC(=O)c1ccc(N(C(N)=O)c2c(F)cccc2F)nc1-c1ccc(F)cc1F at 2 µM | 102 | 67.3 | 73.0 | 36.9 | - | 185 | 140 | 40.3 | 104 | 112 |
| Cc1cc(SCc2sc(-c3ccc(C(F)(F)F)c(F)c3)nc2C)ccc1OCC(=O)O at 10 µM | 85.7 | 97.5 | 54.2 | 161 | 55.7 | 75.3 | 168 | 41.0 | 63.3 | 115 |
| Cn1cnc2c(F)c(Nc3ccc(Br)cc3Cl)c(C(=O)NOCCO)cc21 at 0.075 µM | 388 | 102 | 163 | 215 | - | 75.4 | 374 | 112 | 142 | 63.1 |
| O=C(O)C(=O)Nc1sc2c(c1C(=O)O)CCNC2 at 8.33 µM | 29.8 | 156 | 131 | 61.5 | 107 | 55.0 | 180 | 24.5 | 74.9 | 86.3 |
| CN1CCN(c2ccc3nc(-c4c(N)c5c(F)cccc5[nH]c4=O)[nH]c3c2)CC1 at 0.5 µM | 178 | 165 | 154 | 151 | - | 302 | 153 | 181 | 114 | 53.8 |
| NCC(=O)Nc1ccc(-n2nc(C(F)(F)F)cc2-c2ccc3c(ccc4ccccc43)c2)cc1 at 5 µM | 148 | 110 | 225 | 54.2 | - | 56.3 | 380 | - | 1990 | 277 |
| Cc1cc(Nc2cc(N3CCN(C)CC3)nc(/C=C/c3ccccc3)n2)n[nH]1 at 0.2 µM | 205 | 46.9 | 29.3 | 92.2 | - | 234 | 261 | 145 | 20.8 | 115 |
| Cn1cc(C2=C(c3cn(C4CCN(Cc5ccccn5)CC4)c4ccccc34)C(=O)NC2=O)c2ccccc21 at 4 µM | 66.9 | 29.8 | 102 | 61.2 | - | 89.0 | 444 | 147 | 32.9 | 221 |
| O=C(O)[C@@H]1[O][Sb](=[O])([O][Sb]2(=[O])[O][C@H]([C@H](O)CO)[C@H](O)[C@H](C(=O)O)[O]2)[O][C@H]([C@H](O)CO)[C@@H]1O (stereo partly shown) at 10 µM | 92.3 | 32.9 | 134 | 59.9 | - | 69.5 | 237 | 30.3 | 35.3 | 113 |
| CN(C)S(=O)(=O)c1ccc2c(c1)/C(=C/c1cc3c([nH]1)CCCC3)C(=O)N2 at 2 µM | 139 | 256 | 116 | 40.4 | - | 114 | 129 | - | 203 | 105 |
| O=C(Nc1ccccc1)c1cc([N+](=O)[O-])ccc1Cl at 10 µM | 78.5 | 236 | 97.5 | 167 | 167 | 205 | 395 | 31.6 | 171 | 118 |
| O=C(Nc1cccc(Cl)c1)Nc1ncc(CCNc2ncnc3ccsc23)s1 at 0.004 µM | 372 | 320 | 292 | 170 | - | 174 | 84.0 | - | 56.0 | 51.4 |
| Oc1nc(-c2ccc(C(F)(F)F)cc2)nc2c1CSCC2 at 10 µM | 83.4 | 51.0 | 185 | 200 | 44.0 | 151 | 162 | 53.8 | 109 | 176 |
| CNC(=O)c1cc(Oc2ccc(NC(=O)Nc3ccc(Cl)c(C(F)(F)F)c3)cc2)ccn1 at 2 µM | 87.5 | 67.2 | 177 | 79.0 | - | 179 | 159 | 112 | 45.8 | 96.2 |
| COc1cc2c(Oc3ccc4[nH]c(C)cc4c3F)ncnc2cc1OCCCN1CCCC1 at 2 µM | 28.3 | 112 | 90.6 | 78.2 | - | 66.4 | 149 | - | 62.4 | 313 |
| N#CC[C@H](C1CCCC1)n1cc(-c2ncnc3[nH]ccc23)cn1 at 5 µM | 25.5 | 141 | 219 | 67.5 | - | 105 | 119 | 55.9 | 59.4 | 61.8 |
| CS(=O)(=O)CCNCc1ccc(-c2ccc3ncnc(Nc4ccc(OCc5cccc(F)c5)c(Cl)c4)c3c2)o1 at 4 µM | 130 | 223 | 212 | 122 | - | 107 | 374 | 72.0 | 110 | 73.6 |
| O=c1cc(-c2cccc3c2Sc2ccccc2S3)oc(N2CCOCC2)c1 at 5 µM | 64.4 | 189 | 134 | 127 | 85.8 | 61.9 | 233 | 119 | 73.4 | 75.8 |
| COCC[n+]1c2c(n(Cc3cnccn3)c1C)C(=O)c1ccccc1C2=O at 0.002 µM | 1330 | 50.9 | 215 | 132 | - | 77.0 | 146 | 542 | 70.2 | 61.4 |